Laboratory results: patent publication US20210206744A1, “BENZIMIDAZOLE COMPOUNDS AS AGRICULTURAL CHEMICALS” (REDAG CROP PROTECTION LTD, priority 2017, published 2021)
Some results were stated once for a whole list of compounds, not compound by compound.

Legend:
Pythium ultimum = assay: Amended agar assay; type: cell-based; conditions: at 2 ppm
Experimental: Amended Agar Assay Testing was carried out on potato dextrose agar (PDA) amended with each compound at a test concentration of 2 ppm. Amended agar was poured into three replicate 9 cm petri dishes. Each replicate dish was inoculated in the centre with a 5 mm agar plug taken from the leading edge of a culture aged between 2 and 7 days old; the age of the culture was dependent on the growth rate of the pathogen being tested. The test pathogen was Pythium ultimum. Plates were incubated at 18° C. and the diameter of each colony measured before growth on the fastest growing plate reached the plate edge. This varied between 2 and 7 days depending on the growth rate of test pathogens. The % reduction in colony growth compared to the control plate was calculated. The results are provided in Table 1, in which D represents no control detected at this concentration; C represents up to 50% control; B from 50 to 99% control; and A represents a control of greater than 99%, i.e. no detectable colony growth.

Phytophthora cactorum = assay: 96 well plate test; type: cell-based; conditions: at 2 ppm
Experimental: Compounds were screened in 96 well plates with 10 compounds per plate. Each compound was screened using agar amended to 2, 0.2, 0.02 and 0.002 ppm, with proline at 50 and 10 ppm and 0.2% DMSO used as controls. Each test concentration and standard was replicated twice on a plate. Compounds were screened against Phytophthora cactorum. The agar used in the test is a 1% potato dextrose agar. 1000 spores/mL agar were added to the appropriate agar.
A ×10 stock solution in 2% DMSO was produced for each dose i.e. 20, 2, 0.2 and 0.02 ppm, and 10 μl of this added to the appropriate wells on the plate. An equivalent amount of 2% DMSO and proline stock at 500 and 100 ppm were added for the controls. To each well 90 μl of the appropriate agar spore suspension was added to give the required final well concentrations. Plates were incubated at room temperature (18° C.) and assessed after 2 to 3 days. The amount of pathogen growth in each well was compared to the DMSO controls and an EC50 concentration was calculated. The results are provided in Table 1 in which G represents no control detected at 2 ppm, F represents an EC50 of ≥2 ppm, and E represents an EC50 of less than 2 ppm.

Compound	control over the pathogen (Pythium ultimum), summary in words (Pythium ultimum)	control over the pathogen (Phytophthora cactorum), summary in words (Phytophthora cactorum)
CCCCOC(=O)Nc1cccc(COc2nc3c(Br)cccc3n2-c2nnnn2C)n1 [Compound 35]	good to excellent control	good to excellent control
Cn1nnnc1-n1c(OCc2cccc(NC(=O)COc3ccccc3)n2)nc2c(Br)cccc21 [Compound 36]	good to excellent control	good to excellent control
Cn1nnnc1-n1c(OCc2cccc(NC(=O)C3CCCC3)n2)nc2c(Br)cccc21 [Compound 37]	good to excellent control	good to excellent control
CC(C)COC(=O)Nc1cccc(COc2nc3c(Br)cccc3n2-c2nnnn2C)n1 [Compound 38]	good to excellent control	good to excellent control
CCCOC(=O)Nc1cccc(COc2nc3c(Br)cccc3n2-c2nnnn2C)n1 [Compound 39]	good to excellent control	good to excellent control
Cn1nnnc1-n1c(OCc2cccc(NC(=O)OC3CCCC3)n2)nc2c(Br)cccc21 [Compound 40]	good to excellent control	good to excellent control
CC(C)CC(=O)Nc1cccc(COc2nc3c(Br)cccc3n2-c2nnnn2C)n1 [Compound 41]	good to excellent control	good to excellent control
CCCCC(=O)Nc1cccc(COc2nc3c(Br)cccc3n2-c2nnnn2C)n1 [Compound 42]	good to excellent control	good to excellent control
Cn1nnnc1-n1c(OCc2cccc(NC(=O)OC(C)(C)C)n2)nc2c(-c3ccccc3)cccc21 [Compound 45, tert-Buty (6-(((1-(1-methyl-1H-tetrazol-5-yl)-4-phenyl-1H-benzo[d]imidazol-2-yl)oxy)methyl)pyridin-2-yl)carbamate]	good to excellent control	good to excellent control
CC(C)COC(=O)Nc1cccc(COc2nc3c(-c4ccccc4)cccc3n2-c2nnnn2C)n1 [Compound 46]	good to excellent control	good to excellent control
CC(C)COC(=O)Nc1cccc(COc2nc3c(C4CC4)cccc3n2-c2nnnn2C)n1 [Compound 47]	good to excellent control	good to excellent control
